From the supplement of paper PMC12819154, “High-throughput peptide-centric local stability assay extends protein–ligand identification to membrane proteins, tissues and bacteria” (Nature Structural & Molecular Biology, 2025)
The other results are listed elsewhere or left out. Most values lie at the level of the controls, where differences are scatter.

The chains behind the UniProt entries cited, without tags or fusion partners. Where a name states a change or a piece, a line headed by the entry shows the natural chain unless it says otherwise.
UniProt Q9BRK4: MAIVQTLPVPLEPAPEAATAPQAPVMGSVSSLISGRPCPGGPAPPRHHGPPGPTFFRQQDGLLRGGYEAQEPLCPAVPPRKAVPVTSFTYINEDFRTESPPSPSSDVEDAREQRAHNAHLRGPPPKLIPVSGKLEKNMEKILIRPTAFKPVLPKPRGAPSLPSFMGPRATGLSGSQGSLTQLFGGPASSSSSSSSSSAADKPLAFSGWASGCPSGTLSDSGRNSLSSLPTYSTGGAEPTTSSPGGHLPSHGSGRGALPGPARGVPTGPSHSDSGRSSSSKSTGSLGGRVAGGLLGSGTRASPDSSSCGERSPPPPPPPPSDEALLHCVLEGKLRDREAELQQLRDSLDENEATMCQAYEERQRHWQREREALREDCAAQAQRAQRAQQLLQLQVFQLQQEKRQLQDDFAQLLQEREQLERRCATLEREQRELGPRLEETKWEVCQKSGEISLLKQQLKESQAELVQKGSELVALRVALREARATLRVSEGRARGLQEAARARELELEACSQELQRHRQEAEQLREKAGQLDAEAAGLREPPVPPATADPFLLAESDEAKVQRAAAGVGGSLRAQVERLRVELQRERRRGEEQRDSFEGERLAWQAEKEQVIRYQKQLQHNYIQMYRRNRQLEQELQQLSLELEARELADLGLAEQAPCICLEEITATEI
UniProt Q9BQY4: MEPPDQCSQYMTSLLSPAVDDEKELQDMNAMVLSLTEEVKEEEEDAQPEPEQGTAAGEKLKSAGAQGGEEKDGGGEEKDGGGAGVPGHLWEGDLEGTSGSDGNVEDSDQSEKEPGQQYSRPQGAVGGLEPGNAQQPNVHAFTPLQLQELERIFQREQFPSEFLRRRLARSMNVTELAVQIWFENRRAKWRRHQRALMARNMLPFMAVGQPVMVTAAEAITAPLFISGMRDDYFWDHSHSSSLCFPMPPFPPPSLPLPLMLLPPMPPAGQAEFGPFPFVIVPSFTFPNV
UniProt Q9BT92: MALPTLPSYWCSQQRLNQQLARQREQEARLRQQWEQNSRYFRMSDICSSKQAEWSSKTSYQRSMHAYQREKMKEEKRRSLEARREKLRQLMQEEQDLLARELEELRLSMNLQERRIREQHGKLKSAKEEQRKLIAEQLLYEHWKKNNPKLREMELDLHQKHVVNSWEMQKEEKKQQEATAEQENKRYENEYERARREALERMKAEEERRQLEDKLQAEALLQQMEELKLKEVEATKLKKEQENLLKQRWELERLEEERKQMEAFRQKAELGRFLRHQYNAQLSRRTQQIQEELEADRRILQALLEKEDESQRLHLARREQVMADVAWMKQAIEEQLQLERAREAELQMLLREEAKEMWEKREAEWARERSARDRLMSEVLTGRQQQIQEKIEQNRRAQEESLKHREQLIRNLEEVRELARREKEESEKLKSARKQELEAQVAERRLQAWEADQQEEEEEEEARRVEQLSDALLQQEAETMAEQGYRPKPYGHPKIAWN
UniProt Q9BVC4, whole entry: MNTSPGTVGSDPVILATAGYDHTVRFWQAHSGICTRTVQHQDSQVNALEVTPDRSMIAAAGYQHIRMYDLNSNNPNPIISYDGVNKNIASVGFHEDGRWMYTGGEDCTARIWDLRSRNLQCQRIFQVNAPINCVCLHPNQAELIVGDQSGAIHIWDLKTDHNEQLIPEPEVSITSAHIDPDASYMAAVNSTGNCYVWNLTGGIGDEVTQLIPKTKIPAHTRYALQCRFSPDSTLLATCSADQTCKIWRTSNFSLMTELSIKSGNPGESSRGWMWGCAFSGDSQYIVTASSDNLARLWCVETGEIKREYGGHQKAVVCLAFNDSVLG
UniProt Q99933: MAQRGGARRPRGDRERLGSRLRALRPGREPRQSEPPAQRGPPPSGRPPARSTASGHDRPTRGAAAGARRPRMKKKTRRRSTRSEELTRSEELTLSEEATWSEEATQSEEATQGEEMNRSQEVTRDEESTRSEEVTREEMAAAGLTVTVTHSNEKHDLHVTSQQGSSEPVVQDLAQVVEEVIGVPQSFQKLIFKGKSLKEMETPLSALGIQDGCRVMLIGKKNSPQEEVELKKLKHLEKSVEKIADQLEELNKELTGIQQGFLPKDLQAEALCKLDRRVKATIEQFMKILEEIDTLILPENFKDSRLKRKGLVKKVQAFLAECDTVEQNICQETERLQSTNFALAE
UniProt Q9BRQ3: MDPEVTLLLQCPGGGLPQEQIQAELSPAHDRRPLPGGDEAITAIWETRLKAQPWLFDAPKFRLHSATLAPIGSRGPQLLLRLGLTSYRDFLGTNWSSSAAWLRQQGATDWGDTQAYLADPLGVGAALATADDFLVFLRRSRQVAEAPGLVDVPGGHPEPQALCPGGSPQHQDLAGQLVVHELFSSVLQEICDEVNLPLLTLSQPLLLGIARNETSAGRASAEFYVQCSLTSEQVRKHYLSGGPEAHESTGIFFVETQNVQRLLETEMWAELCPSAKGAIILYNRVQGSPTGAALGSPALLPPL
UniProt Q9BVA0, whole entry: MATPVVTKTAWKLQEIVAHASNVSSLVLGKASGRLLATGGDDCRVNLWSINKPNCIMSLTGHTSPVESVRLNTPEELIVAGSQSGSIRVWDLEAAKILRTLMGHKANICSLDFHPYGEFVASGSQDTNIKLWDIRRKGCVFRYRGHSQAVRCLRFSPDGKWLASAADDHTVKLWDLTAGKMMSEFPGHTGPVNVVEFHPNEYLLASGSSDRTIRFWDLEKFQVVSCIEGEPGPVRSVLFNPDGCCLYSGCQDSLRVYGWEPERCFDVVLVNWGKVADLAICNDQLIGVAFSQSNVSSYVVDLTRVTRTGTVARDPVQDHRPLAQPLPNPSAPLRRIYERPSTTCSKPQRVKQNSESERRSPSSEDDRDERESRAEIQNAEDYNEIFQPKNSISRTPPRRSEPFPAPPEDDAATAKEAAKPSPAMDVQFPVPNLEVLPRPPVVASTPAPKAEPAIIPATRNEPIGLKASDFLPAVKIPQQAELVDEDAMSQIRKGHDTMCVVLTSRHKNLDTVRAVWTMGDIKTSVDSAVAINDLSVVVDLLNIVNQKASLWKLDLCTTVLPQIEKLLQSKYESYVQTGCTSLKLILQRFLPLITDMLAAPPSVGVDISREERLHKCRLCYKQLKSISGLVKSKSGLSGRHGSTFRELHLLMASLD
UniProt Q99598: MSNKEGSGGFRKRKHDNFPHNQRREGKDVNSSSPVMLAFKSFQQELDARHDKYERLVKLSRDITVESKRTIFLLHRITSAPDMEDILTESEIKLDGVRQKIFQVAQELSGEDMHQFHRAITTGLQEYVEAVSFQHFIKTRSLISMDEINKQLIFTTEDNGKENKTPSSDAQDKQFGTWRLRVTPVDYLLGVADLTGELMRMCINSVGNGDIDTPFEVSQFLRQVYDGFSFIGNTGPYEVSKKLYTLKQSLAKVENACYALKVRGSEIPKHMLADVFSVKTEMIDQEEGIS
UniProt Q9BQ15: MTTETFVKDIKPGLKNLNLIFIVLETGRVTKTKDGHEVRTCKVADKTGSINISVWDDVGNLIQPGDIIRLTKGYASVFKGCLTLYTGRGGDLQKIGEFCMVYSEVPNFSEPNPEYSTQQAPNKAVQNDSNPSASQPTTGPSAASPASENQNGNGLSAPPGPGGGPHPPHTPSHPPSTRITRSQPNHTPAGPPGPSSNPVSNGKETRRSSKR
UniProt Q9BRX2, whole entry: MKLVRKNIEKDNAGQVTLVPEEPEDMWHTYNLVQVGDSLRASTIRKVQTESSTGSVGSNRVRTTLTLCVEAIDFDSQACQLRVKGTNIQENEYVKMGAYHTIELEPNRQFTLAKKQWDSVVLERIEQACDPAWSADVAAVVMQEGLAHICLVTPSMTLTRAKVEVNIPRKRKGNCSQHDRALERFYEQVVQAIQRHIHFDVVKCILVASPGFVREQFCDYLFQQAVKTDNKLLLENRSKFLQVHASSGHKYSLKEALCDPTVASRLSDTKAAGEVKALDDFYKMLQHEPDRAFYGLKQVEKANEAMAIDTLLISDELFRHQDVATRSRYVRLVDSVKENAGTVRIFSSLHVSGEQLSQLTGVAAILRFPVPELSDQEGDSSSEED
UniProt Q99956: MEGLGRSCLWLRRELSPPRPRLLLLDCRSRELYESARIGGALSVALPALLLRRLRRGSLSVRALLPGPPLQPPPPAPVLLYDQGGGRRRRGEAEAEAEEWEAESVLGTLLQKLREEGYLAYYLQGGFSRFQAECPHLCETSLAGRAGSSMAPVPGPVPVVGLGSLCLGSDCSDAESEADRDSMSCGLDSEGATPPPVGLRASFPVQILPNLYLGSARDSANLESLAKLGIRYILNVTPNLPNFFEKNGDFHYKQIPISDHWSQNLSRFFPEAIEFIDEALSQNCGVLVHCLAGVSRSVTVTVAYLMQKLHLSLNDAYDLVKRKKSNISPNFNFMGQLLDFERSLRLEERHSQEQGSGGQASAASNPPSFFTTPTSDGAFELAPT
UniProt Q99584: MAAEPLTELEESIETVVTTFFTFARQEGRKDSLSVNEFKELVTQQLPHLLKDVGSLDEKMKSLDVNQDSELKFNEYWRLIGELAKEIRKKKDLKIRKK
UniProt Q99541: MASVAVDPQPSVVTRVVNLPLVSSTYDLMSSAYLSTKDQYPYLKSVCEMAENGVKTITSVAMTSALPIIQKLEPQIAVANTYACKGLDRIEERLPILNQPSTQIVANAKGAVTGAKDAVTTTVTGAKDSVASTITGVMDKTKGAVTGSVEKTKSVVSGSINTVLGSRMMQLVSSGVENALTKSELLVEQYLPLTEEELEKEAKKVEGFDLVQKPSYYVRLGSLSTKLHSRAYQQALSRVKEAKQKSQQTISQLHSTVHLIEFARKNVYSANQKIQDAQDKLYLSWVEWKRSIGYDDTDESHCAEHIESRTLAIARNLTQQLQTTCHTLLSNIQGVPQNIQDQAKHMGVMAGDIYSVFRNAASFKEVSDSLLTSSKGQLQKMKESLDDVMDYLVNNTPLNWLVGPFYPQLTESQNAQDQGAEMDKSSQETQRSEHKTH
UniProt Q9BUW7: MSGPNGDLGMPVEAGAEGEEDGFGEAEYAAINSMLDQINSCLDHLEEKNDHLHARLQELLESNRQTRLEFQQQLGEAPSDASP
UniProt Q9BV97: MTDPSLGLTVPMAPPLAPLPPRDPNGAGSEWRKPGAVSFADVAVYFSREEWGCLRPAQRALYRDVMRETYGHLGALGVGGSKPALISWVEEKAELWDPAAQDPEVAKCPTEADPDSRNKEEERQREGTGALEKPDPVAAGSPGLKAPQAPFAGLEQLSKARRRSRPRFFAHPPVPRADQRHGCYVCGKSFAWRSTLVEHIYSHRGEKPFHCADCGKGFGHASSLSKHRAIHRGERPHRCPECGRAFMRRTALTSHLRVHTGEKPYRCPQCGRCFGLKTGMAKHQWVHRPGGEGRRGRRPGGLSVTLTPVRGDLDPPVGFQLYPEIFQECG
UniProt Q9BRT2: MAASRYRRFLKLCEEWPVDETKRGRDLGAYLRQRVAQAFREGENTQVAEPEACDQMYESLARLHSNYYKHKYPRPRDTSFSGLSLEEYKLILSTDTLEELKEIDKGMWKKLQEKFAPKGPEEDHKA
UniProt Q99836, whole entry: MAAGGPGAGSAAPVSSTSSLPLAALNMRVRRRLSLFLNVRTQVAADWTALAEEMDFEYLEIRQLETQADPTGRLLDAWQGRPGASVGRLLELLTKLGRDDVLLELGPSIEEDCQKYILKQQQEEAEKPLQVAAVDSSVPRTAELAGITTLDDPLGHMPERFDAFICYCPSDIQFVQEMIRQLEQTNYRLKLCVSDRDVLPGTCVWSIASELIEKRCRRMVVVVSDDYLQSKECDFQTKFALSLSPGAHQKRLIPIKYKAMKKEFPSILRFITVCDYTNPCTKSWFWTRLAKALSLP
UniProt Q9BVM2: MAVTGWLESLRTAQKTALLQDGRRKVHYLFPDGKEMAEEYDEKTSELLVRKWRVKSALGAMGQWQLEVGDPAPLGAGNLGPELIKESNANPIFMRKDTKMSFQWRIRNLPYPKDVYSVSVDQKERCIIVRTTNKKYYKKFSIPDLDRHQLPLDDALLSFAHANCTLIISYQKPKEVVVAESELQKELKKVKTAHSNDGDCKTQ
UniProt Q9BUF5, whole entry: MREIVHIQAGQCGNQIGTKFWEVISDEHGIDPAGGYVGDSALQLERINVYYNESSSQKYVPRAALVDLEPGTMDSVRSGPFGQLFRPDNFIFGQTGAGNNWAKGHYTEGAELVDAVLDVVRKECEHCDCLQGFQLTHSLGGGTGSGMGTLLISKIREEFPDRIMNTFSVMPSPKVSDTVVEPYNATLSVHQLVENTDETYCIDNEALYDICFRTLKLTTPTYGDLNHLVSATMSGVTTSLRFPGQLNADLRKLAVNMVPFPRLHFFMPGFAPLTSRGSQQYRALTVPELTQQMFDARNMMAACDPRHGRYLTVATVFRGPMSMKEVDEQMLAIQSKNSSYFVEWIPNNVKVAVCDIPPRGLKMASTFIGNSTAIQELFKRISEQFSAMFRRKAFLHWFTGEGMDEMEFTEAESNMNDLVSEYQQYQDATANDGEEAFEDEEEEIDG
UniProt Q99828: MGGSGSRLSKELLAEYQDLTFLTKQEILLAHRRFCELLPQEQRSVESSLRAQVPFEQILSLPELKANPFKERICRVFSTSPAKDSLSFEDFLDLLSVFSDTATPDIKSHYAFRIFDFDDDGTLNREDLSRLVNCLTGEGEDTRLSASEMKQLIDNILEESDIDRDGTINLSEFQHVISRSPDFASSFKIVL

Compound: CN[C@@H]1C[C@H]2O[C@@](C)([C@@H]1OC)n1c3ccccc3c3c4c(c5c6ccccc6n2c5c31)C(=O)NC4 [staurosporine]
Experiment: log2 fold change of tryptic peptide abundance, ligand vs vehicle (limited proteolysis) (log2 ratio); higher = more trypsin-susceptible (destabilized)
Conditions: ligand concentration: 20 uM; sample: K562 cleared lysate; digestion: 4 min, 22 C (HT-PELSA RT4min, Orbitrap Astral)

Target | log2 fold change
LZTS2 (peptide sequence: EALREDCAAQAQR, peptide start residue: 370) (UniProt Q9BRK4) | -0.338
APBA2 (peptide sequence: LKWPHEQVCNGLEQPR, peptide start residue: 311) (UniProt Q99767) | 0.3
RHOXF2 (peptide sequence: EQFPSEFLR, peptide start residue: 156) (UniProt Q9BQY4) | 0.123
TCHP (peptide sequence: HVVNSWEMQKEEK, peptide start residue: 161) (UniProt Q9BT92) | -0.451
UniProt Q9BVC4 (peptide sequence: NIASVGFHEDGR, peptide start residue: 87) | -0.181
BAG1 (peptide sequence: NSPQEEVELK, peptide start residue: 222) (UniProt Q99933) | 0.407
UniProt Q9BTT6 (peptide sequence: SLEELLLDANQLR, peptide start residue: 37) | 0.115
CDCA3 (peptide sequence: SPLTILQDDNSPGTLTLR, peptide start residue: 199) (UniProt Q99618) | -0.0913
NUDT22 (peptide sequence: LHSATLAPIGSR, peptide start residue: 63) (UniProt Q9BRQ3) | 0.197
UniProt Q9BVA1 (peptide sequence: INVYYNEATGNKYVPR, peptide start residue: 47) | -0.299
KATNB1 (peptide sequence: KGHDTMCVVLTSR, peptide start residue: 493) (UniProt Q9BVA0) | -0.251
ZKSCAN3 (peptide sequence: VLQVPVLAHGGCCREDK, peptide start residue: 184) (UniProt Q9BRR0) | -0.282
TSNAX (peptide sequence: TIFLLHR, peptide start residue: 70) (UniProt Q99598) | 0.341
NUDT16L1 (peptide sequence: LTEADYLSSHLTEGPHR, peptide start residue: 91) (UniProt Q9BRJ7) | -1.13
PKMYT1 (peptide sequence: VGQHPCCVR, peptide start residue: 164) (UniProt Q99640) | 0.457
NABP2 (peptide sequence: SQPNHTPAGPPGPSSNPVSNGKETR, peptide start residue: 182) (UniProt Q9BQ15) | 0.168
PELO (peptide sequence: MGAYHTIELEPNRQFTLAK, peptide start residue: 96) (UniProt Q9BRX2) | -0.465
SDF4 (peptide sequence: YSEFFTGSK, peptide start residue: 342) (UniProt Q9BRK5) | -0.116
TRMO (peptide sequence: AETQPMAPHCPAGR, peptide start residue: 303) (UniProt Q9BU70) | 0.25

Target | log2 fold change
DUSP9 (peptide sequence: ASFPVQILPNLYLGSAR, peptide start residue: 201) (UniProt Q99956) | -0.196
S100A13 (peptide sequence: ELVTQQLPHLLKDVGSLDEK, peptide start residue: 40) (UniProt Q99584) | 0.675
UniProt Q99541 (peptide sequence: DSVASTITGVMDK, peptide start residue: 128) | 0.156
UniProt Q9BW85 (peptide sequence: LMAPFNMR, peptide start residue: 35) | 0.191
MPHOSPH6 (peptide sequence: DHANYEEDENGDITPIKAK, peptide start residue: 134) (UniProt Q99547) | -0.616
C9orf16 (peptide sequence: NDHLHAR, peptide start residue: 49) (UniProt Q9BUW7) | -0.0759
B7Z5R0 (peptide sequence: EGTGALEKPDPVAAGSPGLK, peptide start residue: 126) (UniProt Q9BV97) | -0.477
TARS2 (peptide sequence: GSELPVLER, peptide start residue: 175) (UniProt Q9BW92) | 0.127
UniProt Q9BPX6 (peptide sequence: KTADLAPHPEEK, peptide start residue: 88) | 0.52
UniProt Q9BRT2 (peptide sequence: LILSTDTLEELKEIDKGMWK, peptide start residue: 90) | 0.176
MYD88 (peptide sequence: LIPIKYK, peptide start residue: 252) (UniProt Q99836) | 0.301
DPCD (peptide sequence: EVVVAESELQKELK, peptide start residue: 175) (UniProt Q9BVM2) | 0.58
SENP7 (peptide sequence: WTLPLQWER, peptide start residue: 57) (UniProt Q9BQF6) | 0.104
UniProt Q99612 (peptide sequence: SDHLALHMKR, peptide start residue: 351) | 0.804
TUBB6 (peptide sequence: AALVDLEPGTMDSVR, peptide start residue: 63) (UniProt Q9BUF5) | -0.203
CIB1 (peptide sequence: FCELLPQEQR, peptide start residue: 34) (UniProt Q99828) | -0.0756
BTBD10 (peptide sequence: HVDFQCVK, peptide start residue: 414) (UniProt Q9BSF8) | 0.192
KIFC3 (peptide sequence: SLSALGDVIAALR, peptide start residue: 700) (UniProt Q9BVG8) | -0.274
